Experimental data reported in article doi:10.1101/2020.04.21.053348.
These are yes or no findings as the source states them, for the method shown. For some of these results: In cells and extracts the contact can be indirect. Some results given as binding are weak or reduced against the parent protein; the word gives no strength. Tags and fused reporters may be left off the sequences shown.

Protein sequences, listed by entry. Tags and fused reporters are not part of them. Lines headed by an entry give the natural chain unless they say otherwise; changes in a name come on top. Chains listed by the source or under a name are the forms on record and can include a tag or linker.
UniProt Q99527: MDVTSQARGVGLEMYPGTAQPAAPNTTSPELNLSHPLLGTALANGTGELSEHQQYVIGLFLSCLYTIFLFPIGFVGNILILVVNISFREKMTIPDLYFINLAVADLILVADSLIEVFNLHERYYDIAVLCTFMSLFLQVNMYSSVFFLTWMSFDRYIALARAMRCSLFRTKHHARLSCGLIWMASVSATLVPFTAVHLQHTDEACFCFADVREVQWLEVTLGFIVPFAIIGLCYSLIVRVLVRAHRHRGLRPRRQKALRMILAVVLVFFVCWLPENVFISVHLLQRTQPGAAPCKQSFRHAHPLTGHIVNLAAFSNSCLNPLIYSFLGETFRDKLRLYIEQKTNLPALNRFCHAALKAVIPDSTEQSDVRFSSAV
GPER(mut)/venus-tagged (GPER with fifteen alanine replacements in H6, H7 and H8) (Q99527, form named): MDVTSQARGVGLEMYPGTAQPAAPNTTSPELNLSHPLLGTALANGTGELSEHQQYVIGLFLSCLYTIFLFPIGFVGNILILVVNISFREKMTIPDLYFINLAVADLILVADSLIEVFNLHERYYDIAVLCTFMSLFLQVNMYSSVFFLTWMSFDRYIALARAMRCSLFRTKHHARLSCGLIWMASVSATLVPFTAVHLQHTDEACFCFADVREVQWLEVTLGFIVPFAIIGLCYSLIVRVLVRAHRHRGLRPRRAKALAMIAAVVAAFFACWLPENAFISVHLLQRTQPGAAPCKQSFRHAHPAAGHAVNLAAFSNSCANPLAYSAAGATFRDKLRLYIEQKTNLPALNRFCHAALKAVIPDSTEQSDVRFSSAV

B1: HA-tagged FSHR, P23945 18-695 (receptor)
chain: CHHRICHCSNRVFLCQESKVTEIPSDLPRNAIELRFVLTKLRVIQKGAFSGFGDLEKIEISQNDVLEVIEADVFSNLPKLHEIRIEKANNLLYINPEAFQNLPNLQYLLISNTGIKHLPDVHKIHSLQKVLLDIQDNINIHTIERNSFVGLSFESVILWLNKNGIQEIHNCAFNGTQLDELNLSDNNNLEELPNDVFHGASGPVILDISRTRIHSLPSYGLENLKKLRARSTYNLKKLPTLEKLVALMEASLTYPSHCCAFANWRRQISELHPICNKSILRQEVDYMTQARGQRSSLAEDNESSYSRGFDMTYTEFDYDLCNEVVDVTCSPKPDAFNPCEDIMGYNILRVLIWFISILAITGNIIVLVILTTSQYKLTVPRFLMCNLAFADLCIGIYLLLIASVDIHTKSQYHNYAIDWQTGAGCDAAGFFTVFASELSVYTLTAITLERWHTITHAMQLDCKVQLRHAASVMVMGWIFAFAAALFPIFGISSYMKVSICLPMDIDSPLSQLYVMSLLVLNVLAFVVICGCYIHIYLTVRNPNIVSSSSDTRIAKRMAMLIFTDFLCMAPISFFAISASLKVPLITVSKAKILLVLFHPINSCANPFLYAIFTKNFRRDFFILLSKCGCYEMQAQIYRTETSSTVHNTHPRNGHCSSAPRVTSGSTYILVPLSHLAQN

Legend:
[1] = target: T1, FSHR/rluc (follicle stimulating hormone receptor, rluc-tagged BRET donor) (UniProt P23945); test: FRET or BRET
T1 sequence: B1 chain

HA-tagged FSHR = target: T2, HA-tagged FSHR (UniProt P23945); test: photo-activated localization microscopy with photoactivatable dyes
T2 sequence: B1 chain

HA-tagged FSHR, P23945 = target: T3, HA-tagged FSHR, P23945; test: as above; settings: remark: other sources report otherwise
T3 chain: B1 chain

Molecule	binding [1]	further results
GPER/venus (G protein coupled estrogen receptor, venus-tagged BRET acceptor) (from UniProt Q99527 1-375)	binds	–
GPER(mut)/venus-tagged (GPER with fifteen alanine replacements in H6, H7 and H8) (from UniProt Q99527 1-375) (receptor)	no binding	–
FLAG-tagged GPER (from UniProt Q99527 1-375) (receptor)	–	binding (HA-tagged FSHR): binds
B1	–	binding (HA-tagged FSHR, P23945): binds
